At least one compound was matched to its structure with a doubt left.
Test system: wild-type (WT) murine embryonic fibroblasts (MEFs)
Assay: Untargeted LC/MS/MS proteomics of EVs from WT MEFs exposed 24 hours to drug, compared with untreated WT MEFs
Type: cell-based, mouse
Method: Methods for isolation and purification of exosomes and extracellular vesicles (EV) were extensively reviewed. Experiments were performed to arrive at a robust and reproducible protocol. The protocol used herein is that set forth in Théry et al, 2006, which is incorporated by reference for it teaching of this protocol. This protocol involves depleting serum-derived EVs from cell culture media by overnight ultracentrifugation and exchanging media for 1% FBS EV-depleted media. Media is then collected from cells following a 24-hour conditioning period and EVs are isolated by 18-hour ultracentrifugation at 100,000 g (FIG. 1A).
EVs were isolated from media of cultured murine embryonic fibroblasts (MEFs) prepared in-house according to protocols described by Xu 2005 from DYT1 knockin mice (Tor1a^delGAG/+) (Goodchild R E, et al. (2005) Neuron. 48:923-932) and littermate wild-type (WT) controls. The cultured MEFs from the DYT1 mice were exposed for 24 hours to Ritonavir (RTV) while the MEFs from WT mice were exposed to vehicle, ISRIB, or Salubrinal (SAL). The EVs isolated from these WT cells and DYT1 were characterized by untargeted proteomics and RNA-seq to identify differentially expressed proteins and RNAs as candidate biomarkers. Experimenter and Proteomics core staff were blinded to genotype of cell cultures throughout preparation and analysis phases. EV isolation was confirmed by Western immunoblot documenting presence of the exosomal marker (TSG101) and absence of the endoplasmic reticulum (ER) marker (CANX) (FIG. 1B (Cohort 1) and FIG. 1C (Cohort 2)).
Following the bicinchoninic acid assay (BCA) analysis and Western immunoblot of a portion of samples for QC, 11.6 μg-129.2 μg of EV protein lysates in RIPA buffer were sent to the Duke Proteomics and Metabolomics Shared Resource core facility for LC/MS/MS quantitative proteomic analysis. Samples were first normalized to 20 μg and spiked with undigested casein at a total of 40 fmol/μg, 80 fmol/μg, or 160 fmol/μg, then reduced with 10 mM dithiolthreitol for 30 minute at 80° C. and alkylated with 20 mM iodoacetamide for 30 minutes at room temperature. Next, the samples were supplemented with a final concentration of 1.2% phosphoric acid and 741 μL of S-Trap (Protifi) binding buffer (90% MeOH/100 mM […]). Proteins were trapped on the S-Trap, digested using 20 ng/μL sequencing grade trypsin (Promega) for 1 hour at 47° C., and eluted using 50 mM TEAB, followed by 0.2% FA, and lastly using 50% CAN/0.2% FA. All samples were then lyophilized to dryness and resuspended in 40 μL 1% TFA/2% acetonitrile containing 12.5 fmol/μL yeast alcohol dehydrogenase (ADH_YEAST). A QC Pool was created from 3 uL of each sample. All QC Pools were run periodically throughout the acquisition period.
Quantitative LC/MS/MS was performed on 2 μL of each sample, using a nanoAcquity UPLC system (Waters Corp) coupled to a Thermo Orbitrap Fusion Lumos high resolution accurate mass tandem mass spectrometer (Thermo) via a nanoelectrospray ionization source. Briefly, the sample was first trapped on a Symmetry C18 20 mm×180 μm trapping column (5 μL/min at 99.9/0.1 v/v water/acetonitrile), after which the analytical separation was performed using a 1.8 μm Acquity HSS T3 C18 75 μm×250 mm column (Waters Corp.) with a 90 minute linear gradient of 5% to 30% acetonitrile with 0.1% formic acid at a flow rate of 400 nanoliters/minute (nL/min) with a column temperature of 55° C. Data collection on the Fusion Lumos mass spectrometer was performed in a data-dependent acquisition (DDA) mode of acquisition with a r=120,000 (@ m/z 200) full MS scan from m/z 375-1500 with a target AGC value of 2e5 ions. MS/MS scans were acquired at Rapid scan rate (Ion Trap) with an AGC target of 5e3 ions and a max injection time of 100 ms. The total cycle time for MS and MS/MS scans was 2 seconds. A 20 second dynamic exclusion was employed to increase depth of coverage. The total analysis cycle time for each sample injection was approximately 2 hours. […]

Measured: ISRIB Direction Same as dE?

O=C(COc1ccc(Cl)cc1)NC1CCC(NC(=O)COc2ccc(Cl)cc2)CC1 (stereo not drawn) [ISRIH]
NO: EV protein: 60S ribosomal protein [?] | EV protein: Alpha- [?] | EV protein: Alpha-crystallin B chain | EV protein: Calnexin | EV protein: Calponin-3 | EV protein: Choline transporter-like protein 1 | EV protein: Complement C1q [?] -related protein 3 | EV protein: Extended synaptotagmin-1 | EV protein: General vesicular transport factor p115 | EV protein: Glutathione S-transferase omega-1 | EV protein: Heterogeneous nuclear ribonucleoprotein H | EV protein: Importin-7 | EV protein: Inositol monophosphate 1 | EV protein: Insulin-like growth factor 1 receptor | EV protein: Integrin beta- 3 | EV protein: Lupus [?] protein homolog | EV protein: Nerine arginine-rich splicing factor [?] | EV protein: Nuclear receptor-binding protein | EV protein: Phospholipase D3 | EV protein: Pigment epithelium-derived factor | EV protein: Proenkephalin-A | EV protein: Protein [?] (r160) | EV protein: Protein disulfide-isomerase A4 | EV protein: RNA-binding protein [?] | EV protein: Ras-related protein Rab-6A | EV protein: Transformer-2 protein homolog beta | EV protein: Trascriptional activator protein [?] -alpha | EV protein: Ubiquitin-conjugating enzyme [?] | EV protein: [?] (r162) | EV protein: [?] -1 (r154) | EV protein: [?] -associated membrane protein-associated protein A | EV protein: [?] membrane protein 2 | EV protein: [?] myosin- [?] | EV protein: [?] von Willebrand factor type A, [?] and pentraxin domain-containing protein 1 | WT MEF EVs, protein: ATP-dependent RNA helicase DDX42 | WT MEF EVs, protein: BAG family molecular chaperone regulator 2 | WT MEF EVs, protein: Beta-2-syntrophin | WT MEF EVs, protein: Cleavage stimulation factor subunit 1 | WT MEF EVs, protein: Glutamate-rich WD repeat-containing protein 1 | WT MEF EVs, protein: Heterogeneous nuclear ribonucleoprotein 1-like | WT MEF EVs, protein: Kinetochore-associated protein 1 | WT MEF EVs, protein: Mediator of RNA polymerase II transcription subunit 20 | WT MEF EVs, protein: Metalloproteinase inhibitor 3 | WT MEF EVs, protein: Nucleolar protein 56 | WT MEF EVs, protein: Periodic tryptophan protein 1 homolog | WT MEF EVs, protein: Pre-mRNA-processing factor 40 homolog A | WT MEF EVs, protein: Probable ATP-dependent RNA helicase DDX58 | WT MEF EVs, protein: RNA polymerase II-associated factor 1 homolog | WT MEF EVs, protein: Serine arginine repetitive matrix protein 2 | WT MEF EVs, protein: Splicing factor 45 | WT MEF EVs, protein: Structural maintenance of chromosomes protein 1A
